Measured values published in article PMC10969742, “A Phase I Study of the Oral Dual-Acting Pan-PI3K/mTOR Inhibitor Bimiralisib in Patients with Advanced Solid Tumors” (Cancers, 2024).
Where two headings read alike, the source gives them in different places.

Test system: patients with advanced solid tumors
Type: in vivo
Procedure: This was a Phase 1, open-label, multi-center, non-randomized, dose escalation study evaluating DLTs, tolerability, PK, and preliminary efficacy of bimiralisib in the treatment of patients with advanced solid tumors for which no standard curative or life-prolonging therapy is available. This study was conducted in the US (MD Anderson Cancer Center, Houston; Mayo Clinic Rochester; Roswell Park Comprehensive Cancer Center, Buffalo; University Hospitals of Cleveland), Spain (Vall Hebron University Hospital), Switzerland (Basel University Hospital), and UK (University College London Hospitals NHS Trust and Oxford Universities NHS Trust).
The primary objective of the study was to determine the MTD of bimiralisib administered according to three different dosing schedules. Bimiralisib was formulated as 20 mg and 80 mg capsules for oral administration. The first dosing schedule to be evaluated was continuous (once daily) dosing over a 21-day cycle. […] Patients enrolled in the continuous schedule and intermittent schedule A received a single lead-in dose, administered on […] prior to the start of the first 21-day treatment cycle, to characterize single-dose pharmacokinetics. Based on the previous first-in-human trial with bimiralisib, together with the expected toxicity profile of PI3K/mTOR inhibitors, the starting dose (dose-level 1) of bimiralisib in Study PQR309-003 was set at 80 mg daily.
Safety was monitored by physical examination, vital signs, weight, electrocardiogram, ECOG performance status, laboratory evaluations (including glucose monitoring), and patient self-reported mood questionnaires, as well as AEs. All AEs were coded with NCI Common Terminology Criteria for Adverse Events (CTCAE) v4.03 [27]. The MTD was defined as the maximum dose level at which ≤1/6 patients have DLTs. […] If the patient derived benefit from the treatment as determined by the investigator, treatment could be resumed at a lower dose in agreement with the study sponsor. […]
Descriptive statistics were used to present the data. […] Data were analyzed using SAS. […]

## Nc1cc(C(F)(F)F)c(-c2nc(N3CCOCC3)nc(N3CCOCC3)n2)cn1 [bimiralisib, 5-(4,6-Dimorpholino-1,3,5-triazin-2-yl)-4-(trifluoromethyl)pyridin-2-amine]
80 mg continuous dosing
  Mean duration of treatment (and standard deviation): 57.2 ± 74.1 days
140 mg intermittent schedule A
  Mean duration of treatment (and standard deviation): 72.7 ± 39.0 days
140 mg intermittent schedule B
  Mean duration of treatment (and standard deviation): 82.7 ± 81.5 days
